Results as given in article PMC4520715.
No constants are given. Whether binding was seen depends on the method and setting. Binding seen in cells or lysates may run through a third protein. Some binding calls cover weakened binding; strength is not graded here. Sequences can lack the tags named with a protein.

Amino acid sequences for entries named in this document (tags omitted). Residues count along the entry.
UniProt Q9UMX0: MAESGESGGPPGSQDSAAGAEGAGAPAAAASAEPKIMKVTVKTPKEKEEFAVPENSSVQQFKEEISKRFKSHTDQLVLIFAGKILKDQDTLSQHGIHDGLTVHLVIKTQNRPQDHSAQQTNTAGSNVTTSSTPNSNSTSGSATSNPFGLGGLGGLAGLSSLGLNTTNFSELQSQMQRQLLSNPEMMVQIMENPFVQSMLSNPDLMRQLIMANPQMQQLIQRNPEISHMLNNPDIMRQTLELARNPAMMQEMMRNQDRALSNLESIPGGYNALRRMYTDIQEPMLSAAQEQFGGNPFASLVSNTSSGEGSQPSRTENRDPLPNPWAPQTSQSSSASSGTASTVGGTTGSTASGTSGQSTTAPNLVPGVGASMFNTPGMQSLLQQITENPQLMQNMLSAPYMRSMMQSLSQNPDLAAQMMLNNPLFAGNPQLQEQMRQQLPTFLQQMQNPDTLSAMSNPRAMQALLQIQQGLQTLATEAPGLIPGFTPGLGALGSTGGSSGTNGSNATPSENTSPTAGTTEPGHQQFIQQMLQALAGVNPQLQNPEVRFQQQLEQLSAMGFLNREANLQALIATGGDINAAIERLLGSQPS
UniProt P9WK63, residues 30-182: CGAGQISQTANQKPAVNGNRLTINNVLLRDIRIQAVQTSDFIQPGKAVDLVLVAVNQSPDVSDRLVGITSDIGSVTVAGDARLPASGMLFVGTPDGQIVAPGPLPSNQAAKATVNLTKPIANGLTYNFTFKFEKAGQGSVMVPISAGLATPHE

B1: Rv2911-V5 (protein, UniProt I6Y204 23-291)
chain: AWADADVQPAGSVPIPDGPAQTWIVADLDSGQVLAGRDQNVAHPPASTIKVLLALVALDELDLNSTVVADVADTQAECNCVGVKPGRSYTARQLLDGLLLVSGNDAANTLAHMLGGQDVTVAKMNAKAATLGATSTHATTPSGLDGPGGSGASTAHDLVVIFRAAMANPVFAQITAEPSAMFPSDNGEQLIVNQDELLQRYPGAIGGKTGYTNAARKTFVGAAARGGRRLVIAMMYGLVKEGGPTYWDQAATLFDWGFALNPQASVGSL

Molecular target: myc-UBQLN1 (human) (human) (UniProt Q9UMX0)
Test: co-IP

Molecule	binding
Rv3584-V5 (from UniProt P9WK63 30-182)	binds
B1	binds
